Reference: the supplement of paper PMC10849652
The other results are listed elsewhere or left out.

Sequences of proteins named here, by UniProt entry; tags and fusion partners are left off. A change or cut given only in a name is not applied to a line headed by its entry.
UniProt Q6P1Q9: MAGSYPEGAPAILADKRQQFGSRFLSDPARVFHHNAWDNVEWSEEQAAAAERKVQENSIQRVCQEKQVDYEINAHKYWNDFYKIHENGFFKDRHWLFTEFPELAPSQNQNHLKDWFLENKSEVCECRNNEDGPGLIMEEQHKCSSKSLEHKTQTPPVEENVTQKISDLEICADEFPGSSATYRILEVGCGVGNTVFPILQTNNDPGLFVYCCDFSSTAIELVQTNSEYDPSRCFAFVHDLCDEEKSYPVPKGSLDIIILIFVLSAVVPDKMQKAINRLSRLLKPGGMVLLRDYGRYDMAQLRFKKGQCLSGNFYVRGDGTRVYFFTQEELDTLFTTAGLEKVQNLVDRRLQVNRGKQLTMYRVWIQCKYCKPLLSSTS
UniProt Q6ZN04: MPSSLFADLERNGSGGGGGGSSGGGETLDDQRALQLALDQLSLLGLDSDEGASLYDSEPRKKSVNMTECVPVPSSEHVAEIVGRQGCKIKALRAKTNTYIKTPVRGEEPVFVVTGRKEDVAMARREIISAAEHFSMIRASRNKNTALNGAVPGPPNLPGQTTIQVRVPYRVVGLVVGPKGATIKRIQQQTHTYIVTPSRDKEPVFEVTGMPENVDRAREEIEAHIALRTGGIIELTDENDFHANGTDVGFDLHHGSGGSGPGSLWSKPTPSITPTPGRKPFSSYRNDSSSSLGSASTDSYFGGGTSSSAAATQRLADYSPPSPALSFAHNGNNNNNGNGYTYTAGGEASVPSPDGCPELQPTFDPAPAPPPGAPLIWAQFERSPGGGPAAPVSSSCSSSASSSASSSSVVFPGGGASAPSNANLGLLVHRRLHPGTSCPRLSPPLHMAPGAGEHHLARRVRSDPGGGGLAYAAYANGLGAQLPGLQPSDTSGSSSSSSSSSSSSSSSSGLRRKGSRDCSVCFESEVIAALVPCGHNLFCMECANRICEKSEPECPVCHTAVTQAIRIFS
UniProt Q9BUT9: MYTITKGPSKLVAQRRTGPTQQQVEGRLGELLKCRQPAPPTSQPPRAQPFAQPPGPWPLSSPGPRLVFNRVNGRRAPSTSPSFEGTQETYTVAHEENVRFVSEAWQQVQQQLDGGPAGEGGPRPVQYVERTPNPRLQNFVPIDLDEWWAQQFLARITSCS
UniProt P55081: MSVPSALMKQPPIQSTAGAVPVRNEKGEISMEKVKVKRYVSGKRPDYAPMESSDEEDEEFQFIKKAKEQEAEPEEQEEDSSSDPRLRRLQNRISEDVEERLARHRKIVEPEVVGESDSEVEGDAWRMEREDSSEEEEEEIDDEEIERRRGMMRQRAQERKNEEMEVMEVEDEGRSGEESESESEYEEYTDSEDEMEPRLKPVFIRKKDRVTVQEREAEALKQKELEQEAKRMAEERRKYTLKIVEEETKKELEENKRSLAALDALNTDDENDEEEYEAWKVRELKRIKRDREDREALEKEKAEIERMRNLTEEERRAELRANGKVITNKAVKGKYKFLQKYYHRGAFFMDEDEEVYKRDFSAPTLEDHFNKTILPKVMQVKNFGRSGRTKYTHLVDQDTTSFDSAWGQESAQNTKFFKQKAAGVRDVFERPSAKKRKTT
UniProt Q9NR56: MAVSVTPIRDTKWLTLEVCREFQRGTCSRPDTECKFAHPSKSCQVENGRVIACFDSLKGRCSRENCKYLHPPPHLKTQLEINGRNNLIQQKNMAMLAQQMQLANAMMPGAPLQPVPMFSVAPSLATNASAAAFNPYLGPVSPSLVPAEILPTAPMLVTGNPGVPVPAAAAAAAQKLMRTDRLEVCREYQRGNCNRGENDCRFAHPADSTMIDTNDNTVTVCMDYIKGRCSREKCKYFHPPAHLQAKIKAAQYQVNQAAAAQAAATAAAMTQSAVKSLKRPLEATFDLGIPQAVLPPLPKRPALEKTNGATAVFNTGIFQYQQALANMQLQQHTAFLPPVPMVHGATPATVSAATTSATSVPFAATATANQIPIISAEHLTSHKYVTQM
UniProt Q9GZY8: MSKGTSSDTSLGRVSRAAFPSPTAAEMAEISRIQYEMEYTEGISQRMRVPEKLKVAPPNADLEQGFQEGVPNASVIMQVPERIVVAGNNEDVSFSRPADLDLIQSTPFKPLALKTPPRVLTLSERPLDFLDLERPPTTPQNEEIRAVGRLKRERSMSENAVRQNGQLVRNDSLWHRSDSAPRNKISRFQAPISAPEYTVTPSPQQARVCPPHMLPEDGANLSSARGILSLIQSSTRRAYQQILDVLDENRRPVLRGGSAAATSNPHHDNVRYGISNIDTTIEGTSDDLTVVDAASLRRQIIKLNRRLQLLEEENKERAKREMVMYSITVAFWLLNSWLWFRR
UniProt Q6ZNC8: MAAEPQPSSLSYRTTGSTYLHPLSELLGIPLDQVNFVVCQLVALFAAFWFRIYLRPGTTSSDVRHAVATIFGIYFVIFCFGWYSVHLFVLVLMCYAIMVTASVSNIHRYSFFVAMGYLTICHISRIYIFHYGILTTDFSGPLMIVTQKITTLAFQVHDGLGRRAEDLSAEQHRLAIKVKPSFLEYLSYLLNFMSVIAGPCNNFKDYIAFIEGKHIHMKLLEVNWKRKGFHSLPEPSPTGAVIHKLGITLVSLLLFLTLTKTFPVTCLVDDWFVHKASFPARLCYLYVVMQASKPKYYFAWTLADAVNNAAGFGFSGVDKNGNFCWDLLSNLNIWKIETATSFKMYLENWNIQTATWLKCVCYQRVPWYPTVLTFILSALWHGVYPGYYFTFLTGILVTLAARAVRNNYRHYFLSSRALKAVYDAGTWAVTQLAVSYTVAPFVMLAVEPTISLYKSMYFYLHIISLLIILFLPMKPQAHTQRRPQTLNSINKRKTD
UniProt Q9Y3C7: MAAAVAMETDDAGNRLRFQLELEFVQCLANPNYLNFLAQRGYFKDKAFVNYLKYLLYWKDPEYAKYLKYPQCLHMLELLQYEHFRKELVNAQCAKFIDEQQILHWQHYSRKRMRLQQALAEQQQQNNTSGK
UniProt O60318: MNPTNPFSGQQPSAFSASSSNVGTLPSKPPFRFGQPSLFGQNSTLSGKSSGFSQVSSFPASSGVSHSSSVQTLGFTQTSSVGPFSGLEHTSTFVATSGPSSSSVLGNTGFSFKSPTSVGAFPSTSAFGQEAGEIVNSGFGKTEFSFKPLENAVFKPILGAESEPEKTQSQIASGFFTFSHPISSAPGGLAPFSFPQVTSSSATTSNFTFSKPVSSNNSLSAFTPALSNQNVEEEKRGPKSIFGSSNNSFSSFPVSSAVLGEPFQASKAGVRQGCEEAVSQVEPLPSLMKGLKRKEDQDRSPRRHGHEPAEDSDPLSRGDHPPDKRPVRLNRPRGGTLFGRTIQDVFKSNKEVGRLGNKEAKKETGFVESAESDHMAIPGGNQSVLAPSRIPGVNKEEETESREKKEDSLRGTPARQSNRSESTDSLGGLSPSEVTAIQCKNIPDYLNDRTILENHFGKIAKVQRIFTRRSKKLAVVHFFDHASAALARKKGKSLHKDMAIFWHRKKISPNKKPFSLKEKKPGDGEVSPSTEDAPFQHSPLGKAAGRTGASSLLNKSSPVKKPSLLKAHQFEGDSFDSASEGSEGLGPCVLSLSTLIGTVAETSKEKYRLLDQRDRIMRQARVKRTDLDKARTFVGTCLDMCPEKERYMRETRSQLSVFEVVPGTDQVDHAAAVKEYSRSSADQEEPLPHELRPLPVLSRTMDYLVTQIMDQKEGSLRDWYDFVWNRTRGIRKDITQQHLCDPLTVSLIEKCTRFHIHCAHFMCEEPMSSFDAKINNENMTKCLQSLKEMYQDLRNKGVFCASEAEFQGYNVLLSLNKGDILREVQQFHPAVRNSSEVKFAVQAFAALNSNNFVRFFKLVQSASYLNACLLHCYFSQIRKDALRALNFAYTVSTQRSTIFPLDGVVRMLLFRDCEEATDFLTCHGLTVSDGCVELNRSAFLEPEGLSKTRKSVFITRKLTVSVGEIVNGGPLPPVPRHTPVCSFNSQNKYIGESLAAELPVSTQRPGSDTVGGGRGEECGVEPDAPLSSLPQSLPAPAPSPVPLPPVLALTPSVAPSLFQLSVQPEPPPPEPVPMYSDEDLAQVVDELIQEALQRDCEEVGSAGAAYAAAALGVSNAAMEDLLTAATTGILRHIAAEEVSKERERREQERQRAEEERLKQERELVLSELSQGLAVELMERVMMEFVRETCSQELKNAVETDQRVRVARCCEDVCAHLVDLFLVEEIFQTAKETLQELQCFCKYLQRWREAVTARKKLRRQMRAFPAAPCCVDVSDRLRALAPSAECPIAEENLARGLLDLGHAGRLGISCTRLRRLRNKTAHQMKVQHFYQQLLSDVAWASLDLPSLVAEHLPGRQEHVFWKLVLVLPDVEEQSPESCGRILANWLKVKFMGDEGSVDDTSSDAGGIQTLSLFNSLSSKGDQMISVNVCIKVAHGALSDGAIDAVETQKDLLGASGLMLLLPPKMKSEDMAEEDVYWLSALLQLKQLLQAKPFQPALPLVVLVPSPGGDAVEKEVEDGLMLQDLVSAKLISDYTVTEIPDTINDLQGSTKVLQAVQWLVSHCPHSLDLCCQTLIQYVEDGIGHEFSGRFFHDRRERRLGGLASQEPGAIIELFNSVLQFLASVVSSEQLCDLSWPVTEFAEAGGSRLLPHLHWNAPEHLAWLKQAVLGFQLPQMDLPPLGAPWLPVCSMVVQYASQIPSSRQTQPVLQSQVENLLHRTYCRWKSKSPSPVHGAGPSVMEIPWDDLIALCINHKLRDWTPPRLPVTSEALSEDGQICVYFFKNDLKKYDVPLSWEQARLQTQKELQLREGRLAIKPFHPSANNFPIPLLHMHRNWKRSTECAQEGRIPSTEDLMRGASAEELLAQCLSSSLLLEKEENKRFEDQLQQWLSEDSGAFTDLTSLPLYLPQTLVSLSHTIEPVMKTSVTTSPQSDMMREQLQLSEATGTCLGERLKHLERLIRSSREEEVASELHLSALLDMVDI
UniProt Q12866: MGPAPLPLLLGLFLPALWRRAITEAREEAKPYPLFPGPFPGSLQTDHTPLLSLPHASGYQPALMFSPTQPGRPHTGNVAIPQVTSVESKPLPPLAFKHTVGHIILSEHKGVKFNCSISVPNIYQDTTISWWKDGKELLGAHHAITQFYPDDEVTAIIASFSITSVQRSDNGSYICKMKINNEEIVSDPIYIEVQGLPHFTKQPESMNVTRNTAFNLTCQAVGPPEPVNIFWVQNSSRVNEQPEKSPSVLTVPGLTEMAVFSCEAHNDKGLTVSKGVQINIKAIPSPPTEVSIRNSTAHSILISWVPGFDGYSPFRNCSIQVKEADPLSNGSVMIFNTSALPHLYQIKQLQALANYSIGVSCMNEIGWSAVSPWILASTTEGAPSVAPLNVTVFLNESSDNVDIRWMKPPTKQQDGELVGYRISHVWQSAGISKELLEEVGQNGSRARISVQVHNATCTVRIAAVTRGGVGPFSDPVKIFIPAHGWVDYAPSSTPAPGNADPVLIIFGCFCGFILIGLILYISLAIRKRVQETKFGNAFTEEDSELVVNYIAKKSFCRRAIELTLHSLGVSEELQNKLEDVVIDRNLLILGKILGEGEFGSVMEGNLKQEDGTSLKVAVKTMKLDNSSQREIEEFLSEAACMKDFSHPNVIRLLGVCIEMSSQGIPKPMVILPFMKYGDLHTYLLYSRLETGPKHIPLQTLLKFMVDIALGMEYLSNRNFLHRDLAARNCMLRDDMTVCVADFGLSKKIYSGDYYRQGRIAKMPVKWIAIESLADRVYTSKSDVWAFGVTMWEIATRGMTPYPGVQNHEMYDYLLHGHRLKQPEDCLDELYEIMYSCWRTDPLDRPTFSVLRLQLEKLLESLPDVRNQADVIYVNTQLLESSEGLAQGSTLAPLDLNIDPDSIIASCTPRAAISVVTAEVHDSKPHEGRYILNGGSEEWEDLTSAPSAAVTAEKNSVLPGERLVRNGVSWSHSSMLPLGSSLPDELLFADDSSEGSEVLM
UniProt Q8TC05: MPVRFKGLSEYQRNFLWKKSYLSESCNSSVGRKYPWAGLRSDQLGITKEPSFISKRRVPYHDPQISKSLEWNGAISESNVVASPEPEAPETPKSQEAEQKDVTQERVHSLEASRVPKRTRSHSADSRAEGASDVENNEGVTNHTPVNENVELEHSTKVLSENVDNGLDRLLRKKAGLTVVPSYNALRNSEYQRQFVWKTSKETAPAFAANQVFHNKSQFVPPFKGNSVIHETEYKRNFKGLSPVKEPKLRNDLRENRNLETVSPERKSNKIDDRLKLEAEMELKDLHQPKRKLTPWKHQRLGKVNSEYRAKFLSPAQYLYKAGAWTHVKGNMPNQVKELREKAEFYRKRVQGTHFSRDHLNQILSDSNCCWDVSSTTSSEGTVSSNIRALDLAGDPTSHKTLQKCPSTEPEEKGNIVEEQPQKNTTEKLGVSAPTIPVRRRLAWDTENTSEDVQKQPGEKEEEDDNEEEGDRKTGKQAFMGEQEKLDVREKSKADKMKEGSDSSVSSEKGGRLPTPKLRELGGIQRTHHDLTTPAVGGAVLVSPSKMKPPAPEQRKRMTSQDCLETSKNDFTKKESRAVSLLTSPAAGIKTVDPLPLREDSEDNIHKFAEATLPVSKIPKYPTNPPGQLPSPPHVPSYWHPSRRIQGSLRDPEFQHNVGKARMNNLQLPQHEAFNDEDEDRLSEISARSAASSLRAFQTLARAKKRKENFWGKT

Tests used:
Experiment in all cases: log2 fold change, soluble protein after heating vs DMSO (PISA); higher = thermal stabilisation; K562 lysate, 10 uM; active = over 0.2 and 3.5 SD of the protein, either way, in both replicates (recomputed)
[1] = compound: C=CC(=O)N1CCC[C@@H](n2nc(-c3ccc(Oc4ccccc4)cc3)c3c(N)ncnc32)C1 [ibrutinib]
How it was run: (§1)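 Values give the log-two fold change in thermal stability against solvent controls, from duplicates. Crude K562 extract at 1 mg/mL protein, made by dounce homogenisation in PBS pH 7.4 with 1 mM MgCl2, was treated with 10 μM compound for 30 min. After 3 min heating across 48°C-58°C, aliquots were pooled, adjusted to 0.5% NP-40 at 4°C and centrifuged at 21,000xg for 90 min. The supernatant was measured by TMTpro 16plex LC-MS/MS with channel sums equalised.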

[2] = compound: CC(=O)c1cnc2ccc(-c3cc(Cl)c(O)c(Cl)c3)nc2c1N[C@H]1CC[C@H](CN(C)C)CC1
How it was run: as §1

[3] = compound: CC1=C(C2=C(C=C1)C(=O)C3=CC=CC=C3N2CCCN)C
How it was run: as §1

[4] = compound: CC1=C(C=C(C=C1)NC(=O)C2=CC(=CC=C2)C(C)(C)C#N)NC3=CC4=C(C=C3)N=CN(C4=O)C
How it was run: as §1

[5] = compound: CC1=CC=C(C=C1)SC2=C3C=C(SC3=CN=C2)C(=O)N
How it was run: as §1

[6] = compound: CC(C)C1=C2N=C(C=C(N2N=C1)NCC3=CC=CC=C3)NCCCCCCN
How it was run: as §1

[7] = compound: CC(C)(C)Cn1c(N)nc2ccc(-c3[nH]c(C(C)(C)C)nc3-c3ccc(F)cc3)nc21 [ralimetinib]
How it was run: as §1

[8] = compound: CC(C)(O)CC(=O)NCCn1ccc2ncnc(Nc3ccc(Oc4cccc(C(F)(F)F)c4)c(Cl)c3)c21
How it was run: as §1

[9] = compound: CC1=C(C(CC(=O)N1)C2=CC=C(C=C2)C(F)(F)F)C(=O)NC3=C(C=C4C(=C3)C=NN4)F
How it was run: as §1

[10] = compound: CC1=C(C=C(C=C1)NC(=O)C2=CC(=CC=C2)N(C)C)NC(=O)C3=CC=C(C=C3)O
How it was run: as §1

Measured: log2 fold change

METTL2B (UniProt Q6P1Q9)
inactive: [1] 0.056 | [2] -0.076 | [3] 0.175 | [4] -0.114 | [5] 0.075

METTL5 (UniProt H0YFV5)
inactive: [1] -0.083 | [2] 0.032 | [6] 0.001 | [4] 0.306 | [5] -0.172

MEX3D isoform 3 (UniProt Q86XN8)
inactive: [1] 0.005 | [2] 0.102 | [7] -0.03 | [8] 0.085 | [6] 0.26 | [9] -0.024 | [3] 0.071 | [4] 0.024 | [10] -0.096 | [5] -0.109

MBD2 (UniProt Q9UBB5)
inactive: [1] 0.013 | [2] 0.018 | [7] -0.043 | [8] -0.03 | [6] 0.016 | [9] -0.013 | [3] -0.017 | [4] -0.053 | [10] -0.048 | [5] 0.007

MEX3B (UniProt Q6ZN04)
inactive: [1] -0.011 | [2] -0.074 | [7] -0.101 | [8] 0.063 | [6] 0.183 | [9] -0.048 | [3] 0.035 | [10] -0.038 | [5] -0.013

METTL1 (UniProt Q9UBP6)
inactive: [1] 0.011 | [2] 0.016 | [7] 0.004 | [8] 0.052 | [6] -0.005 | [9] 0.005 | [3] 0.025 | [4] -0.029 | [10] -0.016 | [5] 0.045

MCRIP2 (UniProt Q9BUT9)
inactive: [1] 0.124 | [2] 0.023 | [7] 0.022 | [8] -0.035 | [6] -0.049 | [9] -0.087 | [3] 0.059 | [4] 0.039 | [10] -0.038 | [5] -0.049

MFAP1 (UniProt P55081)
inactive: [1] 0.05 | [2] -0.012 | [7] -0.023 | [8] 0.021 | [6] -0.026 | [9] 0.001 | [3] 0.017 | [4] -0.001 | [10] -0.03 | [5] -0.035

METTL25 (UniProt Q8N6Q8)
inactive: [1] 0.027 | [2] -0.073 | [7] -0.058 | [8] -0.106 | [3] -0.072 | [10] 0.046 | [5] 0.065

MCAT (UniProt Q8IVS2)
inactive: [1] 0.004 | [2] 0.005 | [7] 0.028 | [8] -0.013 | [6] 0.013 | [9] 0.012 | [3] -0.006 | [4] 0.015 | [10] -0.007 | [5] -0.014

MCMBP (UniProt Q9BTE3)
inactive: [1] 0.001 | [2] -0.007 | [7] 0.016 | [8] 0.038 | [6] -0.009 | [9] 0 | [3] 0.008 | [4] 0.008 | [10] 0.011 | [5] 0.014

MAVS (UniProt Q7Z434)
inactive: [1] 0.087 | [2] 0.016 | [7] 0.016 | [8] -0.05 | [6] 0.024 | [9] 0.055 | [3] -0.002 | [4] 0 | [10] 0.022 | [5] -0.001

MCRIP1 (UniProt I3L4Q0)
inactive: [1] 0.091 | [2] -0.005 | [7] -0.016 | [8] -0.001 | [6] -0.009 | [9] -0.027 | [3] 0.029 | [4] 0.013 | [10] 0.029 | [5] -0.041

Quoted from the results shown (3 entries):
MCMBP (UniProt Q9BTE3)
inactive: [1] 0.001 | [2] -0.007 | [7] 0.016 | [8] 0.038 | [6] -0.009 | [9] 0 | [3] 0.008 | [4] 0.008 | [10] 0.011 | [5] 0.014

MAVS (UniProt Q7Z434)
inactive: [1] 0.087 | [2] 0.016 | [7] 0.016 | [8] -0.05 | [6] 0.024 | [9] 0.055 | [3] -0.002 | [4] 0 | [10] 0.022 | [5] -0.001

MCRIP1 (UniProt I3L4Q0)
inactive: [1] 0.091 | [2] -0.005 | [7] -0.016 | [8] -0.001 | [6] -0.009 | [9] -0.027 | [3] 0.029 | [4] 0.013 | [10] 0.029 | [5] -0.041

Carrying on:

MBNL1 isoform 5 (UniProt Q9NR56)
inactive: [1] 0.045 | [2] 0.061 | [7] -0.027 | [8] -0.032 | [6] -0.013 | [9] -0.001 | [3] 0.034 | [4] -0.122 | [10] 0.003 | [5] -0.002

MEF2A isoform 2 (UniProt Q02078)
inactive: [1] -0.078 | [2] -0.088 | [7] -0.031 | [8] -0.023 | [6] 0.03 | [9] -0.062 | [4] 0.023 | [10] 0.064 | [5] 0.029

MFF isoform 2 (UniProt Q9GZY8)
inactive: [1] 0.007 | [2] -0.044 | [7] -0.03 | [8] -0.033 | [6] -0.052 | [9] 0 | [3] 0.004 | [4] 0.032 | [10] 0.022 | [5] -0.024

MED13L (UniProt Q71F56)
inactive: [1] 0.047 | [2] -0.036 | [7] 0.014 | [8] -0.016 | [6] 0.005 | [9] -0.027 | [3] -0.036 | [4] 0.007 | [10] 0.015 | [5] -0.035

MBOAT1 (UniProt Q6ZNC8)
inactive: [1] 0.098 | [2] -0.059 | [7] 0.167 | [8] -0.111 | [6] -0.243 | [9] -0.078 | [4] 0.032 | [10] 0.179 | [5] 0.231

MED8 isoform 2 (UniProt Q96G25)
inactive: [1] 0.109 | [2] 0.024 | [7] 0.012 | [8] 0.036 | [6] 0.006 | [9] -0.03 | [3] -0.001 | [4] -0.005 | [10] -0.05 | [5] -0.058

MED10 (UniProt Q9BTT4)
inactive: [1] -0.029 | [2] -0.087 | [7] -0.015 | [8] -0.055 | [6] -0.019 | [9] -0.013 | [3] -0.025 | [4] 0.02 | [10] 0.074 | [5] 0.074

MBTPS1 (UniProt Q14703)
inactive: [1] -0.243 | [7] 0.056 | [8] -0.045 | [6] -0.029 | [3] -0.041 | [4] 0.008 | [10] 0.048

METTL26 (UniProt Q96S19)
inactive: [1] 0.058 | [2] 0 | [7] -0.017 | [8] -0.005 | [6] -0.046 | [3] -0.069 | [4] -0.036 | [10] 0.011 | [5] 0.023

MED31 (UniProt Q9Y3C7)
inactive: [1] 0.092 | [2] -0.031 | [7] 0.092 | [8] 0.002 | [6] -0.051 | [9] 0.109 | [3] 0.051 | [4] 0.016 | [10] 0.05 | [5] 0.051

MED14 (UniProt O60244)
inactive: [1] 0.002 | [2] -0.013 | [7] 0.017 | [8] -0.022 | [6] 0.01 | [9] 0.021 | [3] -0.029 | [4] -0.019 | [10] 0.013 | [5] 0.018

MCM3AP (UniProt O60318)
inactive: [1] 0.137 | [2] -0.029 | [7] 0.016 | [8] -0.01 | [6] 0.004 | [9] -0.058 | [3] -0.144 | [10] -0.103 | [5] 0.069

MFSD11 (UniProt O43934)
inactive: [1] -0.029 | [2] -0.016 | [7] 0.044 | [8] -0.087 | [6] -0.078 | [10] -0.051 | [5] -0.033

MERTK (UniProt Q12866)
inactive: [1] 0.092 | [2] 0.034 | [7] -0.069 | [8] -0.056 | [6] 0.042 | [9] 0 | [3] 0 | [4] -0.082 | [10] 0.093 | [5] 0.025

MFSD10 (UniProt Q14728)
inactive: [1] 0.03 | [2] 0.017 | [7] 0.014 | [8] -0.059 | [6] -0.019 | [9] 0.033 | [3] 0.007 | [4] 0.015 | [10] -0.001 | [5] 0.001

MED26 (UniProt O95402)
inactive: [1] -0.007 | [2] -0.024 | [7] -0.009 | [8] -0.066 | [6] -0.153 | [9] 0.086 | [4] 0.031 | [10] 0.014 | [5] 0.016

MED19 (UniProt A0JLT2)
inactive: [1] 0.225 | [2] 0.006 | [7] 0.043 | [8] 0.018 | [3] 0.047 | [4] 0.011 | [10] -0.062 | [5] -0.073

MDM1 (UniProt Q8TC05)
inactive: [2] -0.006 | [7] 0.037 | [8] -0.054 | [6] -0.029 | [9] -0.027 | [3] 0.022 | [10] -0.019 | [5] -0.079
